Data taken from publication PMC12849889.
These are yes or no findings as the source states them, for the method shown. In cells and extracts the contact can be indirect. Some binding calls cover weakened binding; strength is not graded here. Sequences can lack the tags named with a protein. One block for each binder: values may come before it.

Assays:
[1] = target: T1, GCN5-2×FLAG-2×HA (Ubipro::GCN5-2×FlAG-2×HA transgenic rice) (rice (Oryza sativa)) (UniProt Q338B9); assay: co-IP; 14-day-old seedlings of GCN5-2×FLAG-2×HA transgenic or wild-type rice; RIPA buffer; anti-FLAG M2 magnetic beads overnight at 4 °C; blots with anti-HA, anti-ACLA2, anti-ADA2
T1 sequence: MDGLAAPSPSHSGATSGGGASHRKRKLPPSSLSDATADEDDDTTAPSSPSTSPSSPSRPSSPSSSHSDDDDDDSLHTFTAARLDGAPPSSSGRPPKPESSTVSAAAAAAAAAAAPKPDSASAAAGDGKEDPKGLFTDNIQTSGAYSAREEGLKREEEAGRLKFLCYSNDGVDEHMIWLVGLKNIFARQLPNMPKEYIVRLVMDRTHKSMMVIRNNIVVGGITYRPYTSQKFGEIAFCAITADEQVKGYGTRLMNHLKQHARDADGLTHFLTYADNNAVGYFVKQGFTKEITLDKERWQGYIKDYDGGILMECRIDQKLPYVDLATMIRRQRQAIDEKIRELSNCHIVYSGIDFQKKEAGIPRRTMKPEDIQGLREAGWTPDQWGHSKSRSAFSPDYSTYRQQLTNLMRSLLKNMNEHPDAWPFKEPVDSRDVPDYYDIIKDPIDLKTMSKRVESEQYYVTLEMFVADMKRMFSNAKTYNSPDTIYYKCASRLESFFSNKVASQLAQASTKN

[2] = target: T2, GCN5-NLuc (rice (Oryza sativa)) (UniProt Q338B9); assay: split reporter; split-luciferase complementation (NLuc/CLuc of firefly luciferase) in Nicotiana benthamiana leaves, 48 h after infiltration, 1 mM luciferin
T2 sequence: T1 sequence

binding [1]: binds
B1: ADA2, endogenous in rice seedlings (protein, UniProt Q75LL6 1-567)
chain: MGRSRGVPNSGDDETNHRSKRRRVASSGDAPDSLSAACGGAGEGGGKKALYHCNYCNKDISGKIRIKCSKCPDFDLCVECFSVGAEVTPHRSNHPYRVMDNLSFPLICPDWNADEEILLLEGIEMYGLGNWAEVAEHVGTKTKAQCIDHYTTAYMNSPCYPLPDMSHVNGKNRKELLAMAKVQGESKKVLPGDLTPKDESPFSPPRVKVEDALGEGLAGRSPSHIAGGANKKASNVGQFKDGANVAKVEDGHVDRSIGVKKPRYSADEGPSLTELSGYNSKRHEFDPEYDNDAEQALAEMEFKETDSETDRELKLRVLRIYLSRLDERKRRKEFILERNLLFPNPLEKDLTNEDKEVYHRYKVFMRFLSKEEHEALVRSVLEERKIRRRIQELQECRSAGCRTLAEAKIHIEQKRKKEHEVNAQKAKESGQLLSNTKVVHKTNRPMKIESDGNLDQKKGGASLDSTGRDSPKTTGHAGTKHWDDWDIVGFPGAELLSTSEKNLCCQNRLLPNHYLKMQEVLMQEIFKGSVAKKEDAHVLFKVDPAKVDNVYDMVTKKLGTNEEAPTV

binding [2]: binds
B2: CLuc-ADA2 (protein, UniProt Q75LL6 1-567)
chain: B1 chain
